Measurements from publication PMC12040169 (PLOS Biology, 2025).
This is one part of the list.

tested on: T1, CTL2-GFP (C. trachomatis L2/434/Bu, GFP-expressing); design: species or system HeLa; Intracellular C. trachomatis growth in HeLa cells, bulk GFP fluorescence relative to DMSO; conditions: bulk GFP, single well; 28.5 h, 10 µM; inhibitor
T1 construct: L2/434/Bu, GFP-expressing

Compound | % of control remaining [%]
CCOC(=O)c1cn(CC)c2cc(N3CCSCC3)c(F)cc2c1=O [CBK307143] | 158.133
CC(=O)Nc1cccc(-c2cc(NCc3ccccc3)n3nccc3n2)c1 [CBK037153] | 133.856
O=c1[nH]cnc2c1nc(S)n2C1OC(CO)C(O)C1O (stereo not drawn) [CBK218834] | 123.284
Cc1ccccc1CN1CC[C@@H]2[C@H](C1)[C@@H](c1ccc(F)cc1)CN2C(=O)c1cccs1 [CBK285546] | 92.2251
CCc1nc(CN(C)C2CCN(CC(=O)NCc3ccco3)C2)no1 (stereo not drawn) [CBK305328] | 104.457
CC(NC(=O)CCc1ccncc1)c1ccc2c(c1)CCCO2 (stereo not drawn) [CBK281624] | 137.979
CCOC(=O)C1(Cc2ccc(F)cc2F)CCCN(C(=O)CC)C1 (stereo not drawn) [CBK307012] | 114.493
COc1cc(Cl)cc(CNCCO)c1OC(C)C [CBK269196C] | 96.378
O=C(CN1CCCCCC1)N1CCCC1c1n[nH]cc1-c1cccc(Cl)c1 (stereo not drawn) [CBK283084] | 119.656
Cc1cc(Br)ccc1NC(=O)CSc1nnc(-c2ccccc2O)n1-c1ccccc1 [CBK268086] | 123.918
Cc1cc(COc2ccnc(N3CCCN(CCCO)CC3)n2)no1 [CBK083917] | 117.201
COc1cccc(CN2CCN(Cc3cc(OC)cc(OC)c3)CC2)c1 [CBK033622] | 126.237
O=C([C@H]1CN2CCC1C[C@@H]2Cn1cc(COc2ccccc2)nn1)N1CCOCC1 (stereo partly drawn) [CBK288734] | 117.061
O=C(O)/C=C\C(=O)Nc1ccc(Oc2ccccc2)cc1 [CBK261216] | 107.172
Cc1cccc(C(=O)Nc2ccc3oc(-c4cccnc4)nc3c2)c1 [CBK073161] | 114.438
S=C1NCC(COc2ccc(Cl)cc2)O1 (stereo not drawn) [CBK015647] | 96.7429
O=C(CN1CCCCCC1)N/N=C/c1ccc(F)c(Br)c1 [CBK261596] | 107.258
Cc1cc(NC(=O)CCn2c(C(F)F)cc3cccnc32)nn1C [CBK285071] | 130.481
COc1cccc(-c2cnc(N(C)C)nc2C2CCCN2Cc2ccc3ncccc3c2)c1 (stereo not drawn) [CBK286251] | 130.878
CCN1CCN(Cc2ccc(OC)c(OCc3ccccc3)c2)CC1 [CBK261910] | 111.719
N#Cc1cccc(CN2CC[C@H](c3nnc(-c4ccco4)o3)C2)c1 [CBK289394] | 110.662

Compound | % of control remaining [%]
CS(=O)(=O)N1CC2CCCC(O)(c3cccc(F)c3)C2C1 (stereo not drawn) [CBK283107] | 101.836
Cc1nc2c(c(=O)[nH]1)CN(Cc1sccc1C)CC2 [CBK283950] | 135.447
CCNc1nc(-c2cc(Cl)cc(Cl)c2)cn2ccnc12 [CBK066483] | 97.0824
COc1ccc(Oc2nccc(-c3ccccc3)c2C#N)cc1 [CBK291158] | 131.709
COc1ccc(C(=O)[C@H]2CCCN(C(=O)C3CC3)C2)cc1 [CBK284329] | 102.457
CC(C)[C@H](CO)Nc1nc(-c2ccc(S(C)(=O)=O)cc2)cnc1N [CBK063718] | 142.064
O=C(NCC1COc2ccccc2O1)N1CCN(c2cc(C(F)(F)F)ccn2)CC1 (stereo not drawn) [CBK156432] | 125.243
Cc1nc(S(=O)(=O)CCn2cccn2)n(CC2CCCO2)c1C (stereo not drawn) [CBK305141] | 129.303
Cc1ccc(CN2CCC(CN(C)C(=O)c3cc4sccc4[nH]3)CC2)o1 [CBK307522] | 148.55
COc1cc2c3c([nH]c2cc1F)C1(CCN(CCOc2ccccc2)C1)NCC3 (stereo not drawn) [CBK115687T] | 98.7977
CC(NC(=O)/C(=C\c1ccc(Cl)cc1)NC(=O)c1ccccc1Br)C(=O)O (stereo not drawn) [CBK264582] | 100
Cc1ccc(-c2csc(=Nc3ccc(C(=O)O)cc3)n2Cc2ccccc2)cc1 [CBK296062] | 136.961
Brc1ccc(-c2ccnc3nc(-c4ccncc4)nn23)cc1 [CBK288623] | 114.834
O=C(NCCc1ccccc1)C1CCN(C(=O)c2cccc(F)c2)CC1 [CBK307583] | 126.76
Cc1cccc(N2CCN(C(=O)CCc3ccsc3)C(C)C2)n1 (stereo not drawn) [CBK304069] | 94.2817
CCn1c(CN2CCOCC2)nnc1SCC(=O)Nc1cccc(Br)c1 [CBK269740] | 103.924
O=C(CSc1nnc(-c2cccnc2)n1-c1ccccc1)Nc1cc(C(F)(F)F)ccc1Cl [CBK267540] | 104.663
Cc1noc(C)c1CN1CCC(C(O)c2ccccc2)CC1 (stereo not drawn) [CBK305783] | 119.125
Cc1n[nH]c(C)c1CCC(=O)N/N=C/c1ccccn1 [CBK262887] | 103.292
COC(=O)c1c(NC(=O)C(Cc2ccccc2)N2C(=O)c3ccccc3C2=O)sc2c1CCC2 (stereo not drawn) [CBK265744] | 100
O=C1NC2(CCN(C(=O)Cc3ccc(-c4ccccc4)cc3)CC2)Nc2ccccc21 [CBK286309] | 96.8546

Compound | % of control remaining [%]
CC(C)(C)NC(=O)COc1ccc(CNCc2ccc(C(=O)O)cc2)cc1 [CBK287204] | 137.99
Cc1ccc(N2CC(c3nc(-c4ccncc4)no3)CC2=O)cc1Cl (stereo not drawn) [CBK288582] | 105.15
O=C(O)c1ccc(N(Cc2ccccc2)S(=O)(=O)c2ccccc2)cc1 [CBK265375N] | 105.167
N#Cc1cccc(NC(=O)NC[C@H]2C[C@@H]3CC[N@]2C[C@@H]3CN2CCOCC2)c1 [CBK288763] | 124.072
Cc1cc(S(=O)(=O)NC2CCCCC2)ccc1OCC(=O)O [CBK267832] | 97.9866
Cc1nn(CC(=O)NC2CC2)c(=O)c2cc3ccsc3n12 [CBK284026] | 138.037
Cc1cc(NC(=O)C(=O)NC(C)c2ccccc2)ccc1Br (stereo not drawn) [CBK267084] | 154.4
O=C1CC[C@@H](C(=O)N2CCc3nc(-c4ccccc4F)sc3C2)N1 [CBK281891] | 166.565
CN(C)CCCN1C(=O)C(O)=C(C(=O)c2cccs2)C1c1cccnc1 (stereo not drawn) [CBK264511] | 100
CCCCc1ccc(Nc2csc(N)n2)cc1 [CBK020594] | 14.1935
Cc1cc(C)n2c(Nc3ccc(S(N)(=O)=O)cc3)nnc2n1 [CBK267601] | 107.138
CCOC(=O)N1CCN(C(=O)c2c(C)nn(C)c2Cl)CC1 [CBK304522] | 140.9
CC(C)N1CCC(CNC(=O)c2cc(C3CCCCC3)no2)CC1 [CBK283293] | 103.003
COc1ncccc1C(=O)N1CCN(c2ccccc2)CC1 [CBK200166] | 139.713
O=C(O)CCCCC/N=C1\CCc2ccccc2N1 [CBK286773] | 118.055
O=C(CCN1Cc2ccccc2C1=O)NCCN1CCc2ccccc21 [CBK282632] | 141.828
CCCCN(C)c1c(C)nc2ccc(C(=O)N(C)CCCN(C)C)cn12 [CBK146006] | 122.085
C[C@H](NC1=NC(=O)C2(CCN(Cc3ccccc3)CC2)O1)c1ccccc1 [CBK122798T] | 102.653
Nc1ncc(-c2cccc(CO)c2)nc1NC1CCCCC1 [CBK063650] | 189.189
NC(=O)c1c(NC(=O)Cn2cnc([N+](=O)[O-])n2)sc2c1CCCC2 [CBK027935] | 90.245
O=C(O)c1cc(S(=O)(=O)Nc2cccc(-c3cnco3)c2)c(F)cc1Cl [CBK067126] | 121.6

Compound | % of control remaining [%]
O=C1c2ccccc2NC(c2ccccc2F)N1O (stereo not drawn) [CBK288377] | 139.188
COc1cccc(-n2c(=O)[nH]c3c(C(N)=O)nc(-c4ccccc4)nc32)c1 [CBK287740] | 98.0706
COCCN1C(=O)c2ccc(C(=O)Nc3ccc(O)c(C(=O)O)c3)cc2C1=O [CBK268344] | 143.732
COc1cc(S(=O)(=O)Nc2ccc(CC(=O)O)cc2)ccc1Cl [CBK287019] | 117.575
Cc1cc(CN(C)C(=O)c2cc3sccc3[nH]2)no1 [CBK304340] | 156.951
CS(=O)(=O)Cc1cccc(C(=O)Nc2ccc(Oc3ccccc3)cc2)c1 [CBK297111] | 140.892
Cc1ccc(N2C(=O)c3ccccc3NC23C(=O)N(C)c2ccc(Br)cc23)cc1 (stereo not drawn) [CBK103752] | 99.83
Cc1ccc(NC(=O)c2cccnc2)c(C(=O)O)c1 [CBK000177] | 85.5997
Nc1nc(=O)c2cnc3c(Cl)cccc3c2s1 [CBK291229] | 140.52
CSCCCNC(=O)N1CCN(CCN2CCOCC2)CC1 [CBK155669] | 129.534
Nc1cc2cccnc2c(-c2ccsc2)n1 [CBK081218] | 139.012
C=CCOc1ccc(CNCCN2CCOCC2)cc1 [CBK278215C] | 129.019
CCc1nccnc1OC [CBK089673] | 142.388
O=C1NCCNC(=O)C2(C/C=C/COc3ccccc31)CCN(Cc1ccccc1F)CC2 [CBK292024] | 141.606
Cc1cc(NC(=O)CCN2CCC(N3CCNC3=O)CC2)no1 [CBK304909] | 139.086
CCOC(=O)Cc1csc(NS(=O)(=O)/C=C/c2ccccc2)n1 [CBK000072] | 116.913
C=CCN1C(=O)CC2(C1=O)C(=O)N(Cc1csc(-c3ccccc3)n1)c1ccc(Cl)cc12 (stereo not drawn) [CBK075445] | 201.253
O=C(c1ccc(COc2ccc(I)cc2)cc1)N1CCCCCC1 [CBK058852] | 121.573

Individual results from the entries so far:
Value for O=C(CN1CCCCCC1)N/N=C/c1ccc(F)c(Br)c1 [CBK261596] under % of control remaining [%]: 107.258
Value for Cc1cc(Br)ccc1NC(=O)CSc1nnc(-c2ccccc2O)n1-c1ccccc1 [CBK268086] under % of control remaining [%]: 123.918
Value for Cc1ccc(-c2csc(=Nc3ccc(C(=O)O)cc3)n2Cc2ccccc2)cc1 [CBK296062] under % of control remaining [%]: 136.961
Value for CC(NC(=O)/C(=C\c1ccc(Cl)cc1)NC(=O)c1ccccc1Br)C(=O)O (stereo not drawn) [CBK264582] under % of control remaining [%]: 100
